A short description of this data set: peptide synthesis. The following applies: conjugation step.

The substance “[4-[[(2S)-2-[[1-[5-(2,5-dioxopyrrol-1-yl)pentylcarbamoyl]cyclobutanecarbonyl]amino]-5-ureido-pentanoyl]amino]phenyl]methyl-[(1S)-1-[[(1S)-1-[[(1S,2R)-2-methoxy-4-[(2S)-2-[(1R,2R)-1-methoxy-2-methyl-3-oxo-3-[[(1S)-2-phenyl-1-thiazol-2-yl-ethyl]amino]propyl]pyrrolidin-1-yl]-1-[(1S)-1-methylpropyl]-4-oxo-butyl]-methyl-carbamoyl]-2-methyl-propyl]carbamoyl]-2-methyl-propyl]-dimethyl-ammonium” showed a conjugation yield of 7.9% yield.
The same measure for “(2R)-2-((2S,3S)-1-(((1R,3R)-1-acetoxy-1-(4-((2R,4S)-4-carboxy-1-phenylpentan-2-ylcarbamoyl)thiazol-2-yl)-4-methylpentan-3-yl)(methyl)amino)-3-methyl-1-oxopentan-2-ylcarbamoyl)-1-(4-((S)-2-(1-(5-(2,5-dioxo-2,5-dihydro-1H-pyrrol-1-yl)pentylcarbamoyl)cyclobutanecarboxamido)-5-ureidopentanamido)benzyl)-1-methylpiperidinium”: 31.64% yield.
Turning to “(2S,4R)-4-[[2-[(1R,3R)-1-acetoxy-4-methyl-3-[methyl-[(2S,3S)-3-methyl-2-[[(2R)-1-methyl-1-[[4-[[(2R)-2-[(6-nitro-3-pyridyl)disulfanyl]propoxy]carbonylamino]phenyl]methyl]piperidin-1-ium-2-carbonyl]amino]pentanoyl]amino]pentyl]thiazole-4-carbonyl]amino]-2-methyl-5-phenyl-pentanoic Acid”, the conjugation yield is recorded as 32% yield.

The values are drawn from patent publication US11104673B2 (priority 2014, dated 2021).
